From patent publication US20170114412A1
No constants are given. Whether binding was seen depends on the method and setting. Binding seen in cells or lysates may run through a third protein. Some entries that bind do so weakly or less than the wild type.

Sequences of proteins named here, by UniProt entry; tags and fusion partners are left off. Residues count along the entry.
UniProt Q7TPD3, residues 22-1470: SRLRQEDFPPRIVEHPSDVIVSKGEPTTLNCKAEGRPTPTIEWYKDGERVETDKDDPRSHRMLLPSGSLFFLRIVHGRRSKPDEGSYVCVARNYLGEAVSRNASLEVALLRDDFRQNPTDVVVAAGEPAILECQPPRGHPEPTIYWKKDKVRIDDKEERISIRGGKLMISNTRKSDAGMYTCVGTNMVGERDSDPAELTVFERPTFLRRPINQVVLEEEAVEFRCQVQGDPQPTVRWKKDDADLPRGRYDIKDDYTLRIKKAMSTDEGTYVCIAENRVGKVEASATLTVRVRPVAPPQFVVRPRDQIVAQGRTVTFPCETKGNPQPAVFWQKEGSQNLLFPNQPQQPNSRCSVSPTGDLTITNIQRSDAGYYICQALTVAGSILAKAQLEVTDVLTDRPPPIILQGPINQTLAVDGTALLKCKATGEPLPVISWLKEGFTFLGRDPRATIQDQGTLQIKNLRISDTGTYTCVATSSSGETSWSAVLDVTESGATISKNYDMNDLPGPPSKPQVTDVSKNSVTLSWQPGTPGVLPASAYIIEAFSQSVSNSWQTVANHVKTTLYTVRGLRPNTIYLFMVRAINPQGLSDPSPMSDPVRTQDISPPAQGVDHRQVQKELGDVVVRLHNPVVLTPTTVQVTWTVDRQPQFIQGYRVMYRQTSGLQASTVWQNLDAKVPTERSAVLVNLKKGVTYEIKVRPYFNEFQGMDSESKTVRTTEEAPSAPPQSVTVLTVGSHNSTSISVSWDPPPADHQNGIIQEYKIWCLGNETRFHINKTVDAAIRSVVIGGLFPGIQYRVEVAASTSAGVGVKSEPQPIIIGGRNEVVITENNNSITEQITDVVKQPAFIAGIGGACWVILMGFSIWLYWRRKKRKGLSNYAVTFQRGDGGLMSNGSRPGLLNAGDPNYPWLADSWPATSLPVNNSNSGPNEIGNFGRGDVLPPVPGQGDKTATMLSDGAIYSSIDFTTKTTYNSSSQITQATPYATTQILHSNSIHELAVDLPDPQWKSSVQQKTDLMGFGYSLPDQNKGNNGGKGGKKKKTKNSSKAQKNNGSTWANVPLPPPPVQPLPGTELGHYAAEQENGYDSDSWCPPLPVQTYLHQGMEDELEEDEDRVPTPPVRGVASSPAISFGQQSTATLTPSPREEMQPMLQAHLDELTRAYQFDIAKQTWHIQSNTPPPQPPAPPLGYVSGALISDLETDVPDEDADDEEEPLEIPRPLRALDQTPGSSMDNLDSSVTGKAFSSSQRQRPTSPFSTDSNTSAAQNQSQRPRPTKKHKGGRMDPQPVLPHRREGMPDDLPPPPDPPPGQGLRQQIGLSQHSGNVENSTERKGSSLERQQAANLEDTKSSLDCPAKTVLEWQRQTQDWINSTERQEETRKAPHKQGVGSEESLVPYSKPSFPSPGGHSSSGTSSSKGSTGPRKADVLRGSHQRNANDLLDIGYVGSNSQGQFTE

Columns and labels:
[1] = biological target: Robo2, endogenous, of newborn mouse kidney (mouse) (UniProt Q7TPD3); assay: co-immunoprecipitation with mouse anti-nephrin antibody from mouse kidney lysate, Western blot; complex
[2] = biological target: Robo2, endogenous, of newborn mouse kidney (mouse) (UniProt Q7TPD3); assay: co-immunoprecipitation with anti-nephrin antibody from kidneys of Robo2 +/+, +/- and -/- mice, Western blot; complex
[3] = biological target: Robo2, endogenous, of newborn mouse kidney (mouse) (UniProt Q7TPD3); assay: co-immunoprecipitation with anti-nephrin antibody from newborn mouse kidney lysate; complex through Nck

Measured: binding

B1: nephrin, endogenous, of mouse kidney (receptor, UniProt Q9QZS7 37-1256, looked up)
chain: QSPVPTSAPRGFWALSENLTVVEGSTVKLWCGVRAPGSVVQWAKDGLLLGPNPKIPGFPRYSLEGDSAKGEFHLLIEACDLSDDAEYECQVGRSELGPELVSPSVILSILVSPKVLQLTPEAGSTVTWVAGQEYVVTCVSGDAKPAPDIIFIQGGRTVEDVSSSVNEGSEEKLFFTEAEARVTPQSSDNGQLLVCEGSNPALATPIKASFTMNILFPPGPPVIDWPGLNEGHVRAGENLELPCIARGGNPPATLQWLKNGKPVSIAWGTEHAQAVAHSVLVMTVRPEDHGARLSCQSYNSVSAETQERSITLQVTFPPSAVTILGSTSQSENKNVTLCCLTKSSRPRVLLRWWLGGRQLLPTDETVMDGLHGGHISMSNLTLLVKREDNGLSLTCEAFSDAFSKETFKKSLTLNVKYPAQKLWIEGPPEGQSIRTGTRVRLVCLAIGGNPEPSLTWLKDSRPVNDPRQSQEPRRVQLGSVEKSGSTFSRELVLIIGPPDNLAKFSCKAGQLSASTQLVVQFPPTNLTILANSSALRPGDALNLTCVSISSNPPVNLSLDKEGERLDDVAAKPQSAPFKGSAASRSVFLRVSSRDHGHRVTCRAHSEALRETVSSFYRLNVLYPPEFLGEQVRAVTVVEQGQALLPVSVSANPAPEAFNWTFRGYRLSPAGGPRHRILSGGALQLWNVTRADDGFYQLHCQNSEGTAEALLKLDVHYAPTIRALKDPTEVNVGGSVDIVCTVDANPILPEMFSWERLGEDEEELNLDDMEKMSKGSTGRLRIRQAKLSQAGAYQCIVDNGVAPAARGLVRLVVRFAPQVDHPTPLTKVAAAGDSTSSATLHCRARGVPNIDFTWTKNGVPLDLQDPRYTEHKYHQGVVHSSLLTIANVSAAQDYALFKCTATNALGSDHTNIQLVSISRPDPPLGLKVVSVSPHSVGLEWKPGFDGGLPQRFQIRYEALESPGFLYMDVLPAQATTFTLTGLKPSTRYRIWLLASNALGDSGLTDKGIQVSITTPGLDQAPEDTDQPLPTEQPPGPPRLPLLPVLFAVGGLLLLSNASCVGGLLWRRRLRRLAEEISEKTEAGSEEDRIRNEYEESQWTGDRDTRSSTVSTAEVDPHYYSMRDFSPQLPPTLEEVSYRQAFTGIEDEDMAFPGHLYDEVERVYGPPGVWGPLYDEVQMDPYDLRWPEVKYEDPRGIYDQVAADMDAGEPGSLPFELRGHLV
binds: all assays above
